Data source: PubChem BioAssay AID1259314 (Drosophila RNAi Screening Center, 2017)
The deposit covers about 3,100 reagents; shown is an unselected part. 289 of all reagents (9.3%) were called active. 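Active includes both higher and lower ATP than plate average; check the z-score sign for direction.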 Entries without a mark were called inactive. A plus sign joins genes that one reagent is predicted to hit. No sequences are given here. Not given: the amount of reagent.

Assay: 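Genes whose knock-down alters cell survival under toxic manganese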 (primary screen)
System: Drosophila S2R+ cells
Reagents: long dsRNA against Drosophila genes
Time to read-out: 5 days (4 days knock-down, then 1 day metal exposure)
Conditions: manganese chloride added to 15 mM for 24 hours
Detection: 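Cellular ATP measured by luciferase light, scaled to the plate mean, averaged across replicates and z-scored over plates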
Direction: mean ATP z-score: higher = more ATP than the plate average, more viable cells under manganese
Active means: 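Called active when the mean ATP z-score is above 1.5 or below -1.5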
Meaning of the calls: active = strong ATP change, up or down; inactive = no strong ATP change

What is on record for mge [DRSC08721]?
mean ATP z-score: -2 (active)

What did the screen give for CG11147 [DRSC02129]?
mean ATP z-score: 1.4

With CG9643 [DRSC00722], how do the results read?
mean ATP z-score: -0.663

With CG9643 [DRSC27948], what was measured?
mean ATP z-score: 0.218

For Ktch [DRSC15094], what does the deposit list?
mean ATP z-score: -0.0084

Which result is listed for Ktch [DRSC25973]?
mean ATP z-score: -0.272

With SK [DRSC17387], what was measured?
mean ATP z-score: 0.362

What did the screen give for SK [DRSC17887]?
mean ATP z-score: -0.147

For SK [DRSC17888], what does the deposit list?
mean ATP z-score: 0.145

Which result is listed for SK [DRSC27622]?
mean ATP z-score: 2.5 (active)

How did the screen score CG30043 [DRSC06285]?
mean ATP z-score: -0.306

Which result is listed for CG30043 [DRSC39455]?
mean ATP z-score: -0.225

How did the screen score sas [DRSC12631]?
mean ATP z-score: -0.826

With Mdr65 [DRSC11220], what was measured?
mean ATP z-score: -0.402

What did the screen give for CG14160 [DRSC10161]?
mean ATP z-score: -0.453

For CG42638 + Trpml [DRSC11032], what does the deposit list?
mean ATP z-score: -0.486

With CG42638 + Trpml [DRSC39630], what does the deposit list?
mean ATP z-score: -0.21

What is on record for Or45b [DRSC07488]?
mean ATP z-score: 0.128

For Or45b [DRSC39528], what was measured?
mean ATP z-score: -0.229

Laid out differently: 3 of the entries above
| target gene | amplicon | mean ATP z-score |
| --- | --- | --- |
| CG30043 | DRSC06285 | -0.306 |
| CG30043 | DRSC39455 | -0.225 |
| sas | DRSC12631 | -0.826 |

Additional entries follow.
Which result is listed for ppk19 [DRSC15321]?
mean ATP z-score: 0.31

With ppk19 [DRSC39774], what was measured?
mean ATP z-score: -1.71 (active)

What did the screen give for Tsp42Ej [DRSC06113]?
mean ATP z-score: -0.587

For Tsp42Ej [DRSC28269], what was measured?
mean ATP z-score: 0.445

With Fitm [DRSC09772], what does the deposit list?
mean ATP z-score: -1.63 (active)

For Fitm [DRSC28750], what does the deposit list?
mean ATP z-score: 0.126

For CG3652 [DRSC00624], how do the results read?
mean ATP z-score: 1.97 (active)

With rost [DRSC03603], how do the results read?
mean ATP z-score: 0.137

For KaiR1D [DRSC15516], how do the results read?
mean ATP z-score: -0.449

For Gr93b [DRSC22063], how do the results read?
mean ATP z-score: -0.535

How did the screen score Gr93b [DRSC39438]?
mean ATP z-score: -0.142

Which result is listed for Pdfr [DRSC18614]?
mean ATP z-score: 1.09

What is on record for Pdfr [DRSC39789]?
mean ATP z-score: -1.11
